From the supplement of paper PMC10849652 come the findings set out here.

Amino acid sequences for entries named in this document (tags omitted). A change or cut given only in a name is not applied to a line headed by its entry.
UniProt O96033: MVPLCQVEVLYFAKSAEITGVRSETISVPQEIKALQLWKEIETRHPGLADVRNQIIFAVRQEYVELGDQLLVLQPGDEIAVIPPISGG
UniProt Q96BX8: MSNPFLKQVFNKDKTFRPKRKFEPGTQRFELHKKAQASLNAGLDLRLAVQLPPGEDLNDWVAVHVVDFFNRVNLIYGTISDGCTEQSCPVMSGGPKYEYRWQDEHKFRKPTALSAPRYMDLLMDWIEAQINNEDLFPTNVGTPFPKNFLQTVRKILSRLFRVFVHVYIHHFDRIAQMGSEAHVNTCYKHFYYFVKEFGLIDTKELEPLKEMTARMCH
UniProt Q9HAP2: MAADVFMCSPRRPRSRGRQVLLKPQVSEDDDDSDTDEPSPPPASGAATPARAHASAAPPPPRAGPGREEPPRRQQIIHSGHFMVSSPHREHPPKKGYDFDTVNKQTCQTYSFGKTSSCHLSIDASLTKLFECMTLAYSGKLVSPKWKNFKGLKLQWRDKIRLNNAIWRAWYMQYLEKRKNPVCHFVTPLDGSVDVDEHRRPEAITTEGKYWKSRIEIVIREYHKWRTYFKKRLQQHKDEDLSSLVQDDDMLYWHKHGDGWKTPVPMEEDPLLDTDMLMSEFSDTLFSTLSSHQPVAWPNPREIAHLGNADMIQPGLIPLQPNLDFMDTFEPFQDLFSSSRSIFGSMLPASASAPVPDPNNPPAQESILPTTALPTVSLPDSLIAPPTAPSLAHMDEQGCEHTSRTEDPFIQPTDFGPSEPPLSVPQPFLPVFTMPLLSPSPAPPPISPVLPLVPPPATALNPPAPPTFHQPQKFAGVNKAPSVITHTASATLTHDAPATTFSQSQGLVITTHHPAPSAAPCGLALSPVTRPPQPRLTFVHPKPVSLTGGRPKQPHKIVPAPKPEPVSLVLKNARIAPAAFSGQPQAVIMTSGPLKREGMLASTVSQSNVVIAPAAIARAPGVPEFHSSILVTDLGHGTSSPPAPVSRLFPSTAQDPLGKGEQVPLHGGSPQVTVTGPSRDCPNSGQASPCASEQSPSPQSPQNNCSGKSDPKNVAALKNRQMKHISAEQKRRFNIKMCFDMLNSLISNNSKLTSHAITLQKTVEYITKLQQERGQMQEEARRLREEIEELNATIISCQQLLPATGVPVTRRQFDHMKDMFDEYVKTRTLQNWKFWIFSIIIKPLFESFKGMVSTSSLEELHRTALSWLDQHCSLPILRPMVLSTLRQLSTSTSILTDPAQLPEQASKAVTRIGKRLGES
UniProt Q9UI43: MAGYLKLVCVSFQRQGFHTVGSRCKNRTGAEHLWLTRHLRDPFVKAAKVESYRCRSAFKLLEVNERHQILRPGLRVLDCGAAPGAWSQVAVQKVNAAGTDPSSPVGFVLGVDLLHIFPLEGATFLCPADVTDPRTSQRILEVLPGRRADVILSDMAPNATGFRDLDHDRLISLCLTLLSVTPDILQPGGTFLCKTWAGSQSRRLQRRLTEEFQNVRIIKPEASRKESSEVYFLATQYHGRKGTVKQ
UniProt Q7Z3K6: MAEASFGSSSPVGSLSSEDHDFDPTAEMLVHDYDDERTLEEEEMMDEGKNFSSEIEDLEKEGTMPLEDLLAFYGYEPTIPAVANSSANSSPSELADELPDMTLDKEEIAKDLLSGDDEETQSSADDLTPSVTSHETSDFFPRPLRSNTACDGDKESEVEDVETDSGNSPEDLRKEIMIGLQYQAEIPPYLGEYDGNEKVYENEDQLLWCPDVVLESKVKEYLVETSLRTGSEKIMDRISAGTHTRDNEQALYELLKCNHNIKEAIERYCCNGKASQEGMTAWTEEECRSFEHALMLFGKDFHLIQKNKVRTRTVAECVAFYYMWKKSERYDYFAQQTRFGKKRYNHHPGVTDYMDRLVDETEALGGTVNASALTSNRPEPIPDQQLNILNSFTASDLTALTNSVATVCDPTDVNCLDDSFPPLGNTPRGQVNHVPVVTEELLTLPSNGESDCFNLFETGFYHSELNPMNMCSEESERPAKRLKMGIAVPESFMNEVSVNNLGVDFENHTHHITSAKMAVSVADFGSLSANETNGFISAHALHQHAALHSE
UniProt Q8N344: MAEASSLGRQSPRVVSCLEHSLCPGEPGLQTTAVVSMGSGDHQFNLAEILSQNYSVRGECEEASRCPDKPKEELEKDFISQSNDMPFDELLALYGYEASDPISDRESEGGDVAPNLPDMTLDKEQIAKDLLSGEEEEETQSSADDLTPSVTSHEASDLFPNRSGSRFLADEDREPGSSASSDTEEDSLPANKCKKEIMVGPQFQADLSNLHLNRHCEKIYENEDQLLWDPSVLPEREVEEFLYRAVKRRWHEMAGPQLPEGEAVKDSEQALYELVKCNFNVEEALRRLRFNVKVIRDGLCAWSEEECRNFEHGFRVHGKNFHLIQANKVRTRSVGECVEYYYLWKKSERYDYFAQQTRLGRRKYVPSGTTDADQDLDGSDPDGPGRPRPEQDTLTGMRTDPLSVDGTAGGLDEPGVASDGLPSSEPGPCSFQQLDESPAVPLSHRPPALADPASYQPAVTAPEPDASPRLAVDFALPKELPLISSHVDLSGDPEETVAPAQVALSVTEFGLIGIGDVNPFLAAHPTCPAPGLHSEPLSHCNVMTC
UniProt Q9H3L0: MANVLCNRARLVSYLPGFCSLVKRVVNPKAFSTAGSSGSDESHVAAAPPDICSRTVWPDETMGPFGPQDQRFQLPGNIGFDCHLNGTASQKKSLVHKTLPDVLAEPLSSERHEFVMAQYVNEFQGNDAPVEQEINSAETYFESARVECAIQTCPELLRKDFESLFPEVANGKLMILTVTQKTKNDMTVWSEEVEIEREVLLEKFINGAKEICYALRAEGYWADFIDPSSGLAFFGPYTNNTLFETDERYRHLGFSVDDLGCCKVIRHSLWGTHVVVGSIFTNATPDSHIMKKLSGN
UniProt P08473: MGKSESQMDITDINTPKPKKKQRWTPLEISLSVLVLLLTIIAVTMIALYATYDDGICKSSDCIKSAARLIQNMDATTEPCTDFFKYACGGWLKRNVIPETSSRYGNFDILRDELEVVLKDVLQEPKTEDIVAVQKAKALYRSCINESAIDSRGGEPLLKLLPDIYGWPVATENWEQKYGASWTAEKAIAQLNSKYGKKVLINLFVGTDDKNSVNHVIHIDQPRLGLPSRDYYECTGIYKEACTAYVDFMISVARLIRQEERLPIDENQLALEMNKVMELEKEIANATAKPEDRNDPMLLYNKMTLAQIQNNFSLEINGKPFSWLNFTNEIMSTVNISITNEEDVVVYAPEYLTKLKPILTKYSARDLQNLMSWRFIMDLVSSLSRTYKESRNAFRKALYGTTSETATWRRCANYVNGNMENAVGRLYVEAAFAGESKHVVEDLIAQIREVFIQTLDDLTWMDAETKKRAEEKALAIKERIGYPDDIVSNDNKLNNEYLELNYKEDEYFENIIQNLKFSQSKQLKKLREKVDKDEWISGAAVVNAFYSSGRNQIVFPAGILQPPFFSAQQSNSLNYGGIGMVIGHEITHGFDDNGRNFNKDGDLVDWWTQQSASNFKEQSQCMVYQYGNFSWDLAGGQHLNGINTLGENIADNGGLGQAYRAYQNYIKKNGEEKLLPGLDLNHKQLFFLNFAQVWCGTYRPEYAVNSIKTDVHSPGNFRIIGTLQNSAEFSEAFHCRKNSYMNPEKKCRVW
UniProt Q8N4V1: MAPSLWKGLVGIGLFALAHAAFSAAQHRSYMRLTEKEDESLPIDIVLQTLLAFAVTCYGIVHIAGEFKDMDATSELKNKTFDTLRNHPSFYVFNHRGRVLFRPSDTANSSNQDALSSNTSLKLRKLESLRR
UniProt O94851, whole entry, looked up: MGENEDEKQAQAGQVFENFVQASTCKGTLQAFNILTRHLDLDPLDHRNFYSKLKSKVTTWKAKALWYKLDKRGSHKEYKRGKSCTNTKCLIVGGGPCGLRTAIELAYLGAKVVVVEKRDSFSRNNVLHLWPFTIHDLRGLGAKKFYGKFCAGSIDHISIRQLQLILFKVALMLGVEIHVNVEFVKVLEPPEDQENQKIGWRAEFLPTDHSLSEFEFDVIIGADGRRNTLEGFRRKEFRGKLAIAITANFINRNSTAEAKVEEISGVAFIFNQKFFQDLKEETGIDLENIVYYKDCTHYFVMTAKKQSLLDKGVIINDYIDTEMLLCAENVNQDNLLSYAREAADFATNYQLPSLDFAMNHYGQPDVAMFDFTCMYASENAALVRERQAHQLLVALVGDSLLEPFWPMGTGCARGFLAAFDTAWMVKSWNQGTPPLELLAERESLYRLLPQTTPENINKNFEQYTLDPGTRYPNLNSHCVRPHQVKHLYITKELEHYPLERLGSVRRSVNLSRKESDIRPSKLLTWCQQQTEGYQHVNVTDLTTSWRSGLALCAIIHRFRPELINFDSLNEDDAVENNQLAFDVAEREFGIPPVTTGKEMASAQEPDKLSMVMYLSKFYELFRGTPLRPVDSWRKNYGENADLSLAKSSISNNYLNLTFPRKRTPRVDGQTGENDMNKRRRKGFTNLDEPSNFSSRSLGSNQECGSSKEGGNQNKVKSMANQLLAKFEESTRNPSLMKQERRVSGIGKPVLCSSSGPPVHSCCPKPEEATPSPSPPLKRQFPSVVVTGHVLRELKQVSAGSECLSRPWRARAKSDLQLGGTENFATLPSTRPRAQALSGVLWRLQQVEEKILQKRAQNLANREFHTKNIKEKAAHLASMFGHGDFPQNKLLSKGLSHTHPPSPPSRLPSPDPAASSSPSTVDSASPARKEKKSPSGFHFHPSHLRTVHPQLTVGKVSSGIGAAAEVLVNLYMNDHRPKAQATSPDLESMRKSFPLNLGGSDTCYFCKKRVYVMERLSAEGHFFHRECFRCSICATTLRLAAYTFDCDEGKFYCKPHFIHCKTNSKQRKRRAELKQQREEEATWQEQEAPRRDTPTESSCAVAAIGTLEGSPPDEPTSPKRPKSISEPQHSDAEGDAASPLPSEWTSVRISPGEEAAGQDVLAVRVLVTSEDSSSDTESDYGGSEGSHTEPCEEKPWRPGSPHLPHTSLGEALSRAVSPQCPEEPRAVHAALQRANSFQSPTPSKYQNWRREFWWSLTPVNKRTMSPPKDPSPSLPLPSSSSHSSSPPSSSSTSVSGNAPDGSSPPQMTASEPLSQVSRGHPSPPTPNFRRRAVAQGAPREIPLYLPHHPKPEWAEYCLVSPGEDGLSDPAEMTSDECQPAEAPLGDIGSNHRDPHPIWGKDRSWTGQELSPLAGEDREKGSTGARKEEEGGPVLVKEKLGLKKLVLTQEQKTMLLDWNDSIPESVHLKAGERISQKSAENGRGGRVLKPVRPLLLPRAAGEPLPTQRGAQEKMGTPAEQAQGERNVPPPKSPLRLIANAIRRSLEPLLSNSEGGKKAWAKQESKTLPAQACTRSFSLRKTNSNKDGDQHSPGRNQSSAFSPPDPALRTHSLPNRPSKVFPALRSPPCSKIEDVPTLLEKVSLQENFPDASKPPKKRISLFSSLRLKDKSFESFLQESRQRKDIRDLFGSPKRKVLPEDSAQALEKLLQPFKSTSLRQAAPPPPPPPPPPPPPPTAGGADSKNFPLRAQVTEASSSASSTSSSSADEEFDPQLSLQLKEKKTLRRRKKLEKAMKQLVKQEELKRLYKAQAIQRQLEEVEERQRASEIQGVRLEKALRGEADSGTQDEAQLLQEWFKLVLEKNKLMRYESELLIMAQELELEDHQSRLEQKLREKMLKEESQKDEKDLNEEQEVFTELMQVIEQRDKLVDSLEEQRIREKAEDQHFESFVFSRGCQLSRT
UniProt O95396: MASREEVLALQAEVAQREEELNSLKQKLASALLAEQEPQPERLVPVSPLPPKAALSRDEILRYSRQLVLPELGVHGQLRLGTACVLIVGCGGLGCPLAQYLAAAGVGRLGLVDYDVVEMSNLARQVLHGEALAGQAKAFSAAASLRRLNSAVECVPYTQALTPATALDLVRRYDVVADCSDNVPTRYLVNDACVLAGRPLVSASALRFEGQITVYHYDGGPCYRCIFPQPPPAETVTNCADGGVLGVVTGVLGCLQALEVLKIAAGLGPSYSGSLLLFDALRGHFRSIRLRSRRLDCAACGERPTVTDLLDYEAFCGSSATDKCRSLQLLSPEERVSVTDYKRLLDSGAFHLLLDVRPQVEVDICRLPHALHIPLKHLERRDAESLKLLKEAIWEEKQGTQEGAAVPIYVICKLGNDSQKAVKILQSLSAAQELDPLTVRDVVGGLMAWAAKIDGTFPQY

This is one part of the list.

Common to all, as to assay: log2 fold change, soluble protein after heating vs DMSO (PISA); higher = thermal stabilisation; K562 cells, 10 uM, 30 min; active = over 0.2 and 3.5 SD of the protein, either way, in both replicates (recomputed)
Compound in assay [1]: CC[C@@H]1C(=O)N(C)c2cnc(Nc3ccc(C(=O)NC4CCN(C)CC4)cc3OC)nc2N1C1CCCC1
In short, it runs like this: (§1)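 Values are thermal stability changes relative to control samples and are taken from duplicates. They are stated as log2 fold changes. Before quantification by TMTpro 16plex LC-MS/MS with equalised channel sums, K562 cells at 2×10^6 cells/mL were treated with 10 μM compound for 30 min, heated in aliquots for 3 min across 48°C-58°C, pooled, extracted in PBS with 0.5% NP-40 at 4°C, and centrifuged at 21,000xg for 90 min to give the soluble supernatant.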

Compound in assay [2]: CCn1c(C(=O)N(C2CC2)C2CC2)cc2c3c(ncn3C)c(Nc3cc(C)n(C)n3)nc21
In short, it runs like this: as §1

Compound in assay [3]: CCn1cc(-c2ccnc3[nH]c(-c4cccc(CN(C)C)c4)cc23)c(-c2ccc(NC(=O)N(C)C)cc2)n1
In short, it runs like this: as §1

Compound in assay [4]: CN1C2=C(C3=C1C(=O)N(N=C3)CC4=CC(=CC=C4)N)SC(=C2)S(=O)C
Put shortly:
as §1

Compound in assay [5]: CN1CCC(CNc2ccc3ncc(-c4cccc(OC(F)(F)F)c4)n3n2)CC1
Put shortly: as §1

Compound in the next assay: CN1CCN(CCOc2cc(OC3CCOCC3)c3c(Nc4c(Cl)ccc5c4OCO5)ncnc3c2)CC1 [saracatinib]
In short, it runs like this: as §1

Compound in the next assay: CN1CCN(c2nc(C3=C(c4c[nH]c5ccccc45)C(=O)NC3=O)c3ccccc3n2)CC1 [sotrastaurin]
In short, it runs like this: as §1

Compound in the next assay: CN1CC[C@H](c2c(O)cc(O)c3c(=O)cc(-c4ccccc4Cl)oc23)[C@H](O)C1 [alvocidib]
Put shortly: as §1

Compound in another assay: CN1CCc2c(c3ccccc3n2Cc2ccc(C(=O)NO)cc2)C1 [Tubastatin A]
In short, it runs like this:
as §1

Compound in assay [6]: CNC(=O)C1=CC=CC=C1NC2=NC(=NC=C2Cl)NC3=C(C=C(C=C3)N4CCOCC4)OC
Put shortly:
as §1

Compound in another assay: CNCc1ccc(-c2[nH]c3cc(F)cc4c3c2CCNC4=O)cc1 [rucaparib]
Put shortly: as §1

Compound in assay [7]: CNc1nc(-c2ccc3c(N)n[nH]c3c2)cc(N2C[C@@H](C(=O)NC3CCCCC3)CC[C@H]2C)n1
Put shortly: as §1

Compound in the next assay: COC(=O)N[C@@H](C)CNc1nccc(-c2cn(C(C)C)nc2-c2cc(Cl)cc(NS(C)(=O)=O)c2F)n1 [encorafenib]
In short, it runs like this: as §1

Compound in the next assay: CC[C@@H]1C(=O)N(C)c2cnc(Nc3ccc(C(=O)N[C@H]4CC[C@H](N5CCN(CC6CC6)CC5)CC4)cc3OC)nc2N1C(C)C [volasertib]
Put shortly:
as §1

Compound in assay [8]: CC[C@H](C)N1C=C(C2=C(C=C(C=C21)C3=CN=C(C=C3)N4CCNCC4)C(=O)NCC5=C(C=C(NC5=O)C)C)C
In short, it runs like this: as §1

Compound in assay [9]: CN(C)CC(=O)Nc1ccc2[nH]c(=O)c3ccccc3c2c1
In short, it runs like this: as §1

Compound in another assay: CN(CCOC1=CC=C(C=C1)C[C@H]2C(=O)NC(=O)S2)C3=CC=CC=N3 (racemic) [rosiglitazone]
Put shortly: as §1

Compound in the next assay: CNC(=O)c1ccc(Nc2ncc(C(F)(F)F)c(NCc3nccnc3N(C)S(C)(=O)=O)n2)cc1 [defactinib]
In short, it runs like this:
as §1

Compound in assay [10]: COC(=O)[C@H](CCSC)NC(=O)C1=C(C=C(C=C1)NC[C@H](CS)N)C2=CC=CC=C2
In short, it runs like this: as §1

Compound in the next assay: CC[C@H](C)[C@@H](C(=O)N[C@@H]([C@@H](C)O)C(=O)N[C@@H](CC(C)C)C(=O)[C@]1(CO1)C)NC(=O)[C@H]([C@@H](C)CC)N(C)C(=O)C [epoxomicin]
Put shortly:
as §1

For the target MOCS2 (UniProt O96033), the log2 fold change is inactive: -0.015 in assay [1]; inactive: 0.02 in assay [2]; inactive: 0.012 in [3]; inactive: -0.18 in assay [4]; inactive: -0.028 in [5]; inactive: 0.078 with saracatinib. The log2 fold change in the assay with sotrastaurin was inactive: -0.006; in the assay with alvocidib, inactive: 0.063; with Tubastatin A it was inactive: 0.189; in [6], inactive: -0.064; with rucaparib, inactive: 0.009; in [7] it was inactive: -0.061. Moreover, the log2 fold change in the assay with encorafenib was inactive: 0.02.

As to MOB3A (UniProt Q96BX8), the log2 fold change is inactive: -0.317 in the assay with volasertib; inactive: 0.016 in [8]; inactive: -0.033 in assay [2]; inactive: 0.08 in assay [3]; inactive: 0.12 in [9]; inactive: 0.094 with rosiglitazone. Also, the log2 fold change in [4] was inactive: -0.029; in [5], inactive: -0.163; with saracatinib, inactive: 0.155; with sotrastaurin, inactive: -0.238; with alvocidib, inactive: -0.137; with Tubastatin A, inactive: 0.046. Besides, the log2 fold change is inactive: 0.052 in [6], inactive: -0.06 with defactinib, inactive: -0.014 in assay [7] and inactive: -0.104 in [10].

Take MLXIP (UniProt Q9HAP2): the log2 fold change was inactive: -0.345 in the assay with volasertib; inactive: 0.047 in assay [8]; inactive: 0.128 with epoxomicin; inactive: 0.017 in assay [2]; inactive: -0.026 in assay [3]; inactive: -0.019 in [9]. The log2 fold change with rosiglitazone was inactive: 0.094; in assay [4] it was inactive: 0.053; in assay [5], inactive: -0.097; with saracatinib, inactive: -0.116; with sotrastaurin, inactive: -0.122; with alvocidib it was inactive: -0.141. Further, the log2 fold change in the assay with Tubastatin A is inactive: 0.086; in assay [6], inactive: -0.021; in the assay with defactinib it was inactive: -0.262; in [7], inactive: 0.11; in assay [10] it was inactive: 0.122.

For the target MRM2 (UniProt Q9UI43), the log2 fold change is inactive: -0.083 with volasertib; inactive: 0.008 in assay [8]; inactive: -0.122 in assay [9]; inactive: -0.042 in [4]; inactive: 0.173 with saracatinib; inactive: -0.07 with Tubastatin A. Moreover, the log2 fold change was inactive: 0.033 in [6], inactive: -0.24 in the assay with defactinib, inactive: 0.004 in assay [7] and inactive: 0.101 in assay [10].

For the target MINDY4 (UniProt Q4G0A6), the log2 fold change with sotrastaurin was inactive: -0.038.

As to MIER3 isoform 2 (UniProt Q7Z3K6), the values for the log2 fold change (in assay [9]; in the assay with defactinib; in assay [10]) were inactive: 0, inactive: -0.011 and inactive: 0.117, respectively.

MIER2 (UniProt Q8N344): the log2 fold change was inactive: 0.094 with epoxomicin; inactive: -0.056 in assay [2]; inactive: -0.028 in assay [9]; inactive: -0.075 in assay [4]; inactive: 0.026 with saracatinib; inactive: -0.319 with alvocidib. In addition, the log2 fold change is inactive: 0.087 in [6], inactive: -0.12 with defactinib, inactive: -0.309 in assay [7] and inactive: 0.039 in [10].

MMADHC (UniProt Q9H3L0): the log2 fold change in [1] is inactive: -0.024; in the assay with volasertib, active: -0.482; in assay [8], inactive: 0.087; in [3] it was inactive: 0.03; in assay [9], inactive: 0.006; in [4] it was inactive: 0.047. The log2 fold change was inactive: 0.181 in assay [5]; inactive: -0.044 in the assay with saracatinib; inactive: 0.07 with Tubastatin A; inactive: -0.011 in [6]; inactive: -0.061 with defactinib; inactive: 0.139 with rucaparib. Moreover, the log2 fold change in [7] is inactive: 0.062; with encorafenib, inactive: -0.031; in [10] it was inactive: -0.011.

Regarding MME (UniProt P08473), the log2 fold change in assay [1] was inactive: 0.002; in [2], inactive: -0.085; in assay [9] it was inactive: 0.061; with rosiglitazone, inactive: -0.138; in assay [4] it was inactive: 0.08; in the assay with saracatinib, inactive: -0.122. Also, the log2 fold change in [6] was inactive: -0.002; with defactinib, inactive: 0.028; in the assay with rucaparib, inactive: 0; in [7], inactive: -0.05; in the assay with encorafenib, inactive: 0.139; in [10], inactive: 0.08.

On to MMGT1 (UniProt Q8N4V1), for which the log2 fold change in the assay with volasertib was inactive: -0.011; in assay [8], inactive: 0.009; with epoxomicin, inactive: 0.032; in [2], inactive: 0.023; in [9], inactive: -0.035; with rosiglitazone, inactive: -0.002. Also, the log2 fold change in [4] is inactive: -0.044; with saracatinib, inactive: 0.007; with sotrastaurin, inactive: 0.13; with alvocidib, inactive: -0.029; in the assay with Tubastatin A, inactive: -0.078; in [6] it was inactive: 0.043. The log2 fold change is inactive: 0.121 in the assay with defactinib, inactive: -0.001 in assay [7] and inactive: -0.062 in assay [10].

Consider MICAL2 (UniProt O94851), for which the log2 fold change in assay [1] was inactive: 0.035; with epoxomicin it was inactive: 0.149; in assay [3] it was inactive: -0.015; in [9], inactive: 0.069; in the assay with rosiglitazone, inactive: 0.063; in assay [4], inactive: 0.192. Besides, the log2 fold change was inactive: -0.242 in [5]; inactive: -0.008 in the assay with saracatinib; inactive: 0.101 with alvocidib; inactive: 0.026 with Tubastatin A; inactive: 0.028 with defactinib; inactive: 0.092 with rucaparib. Further, the log2 fold change in assay [7] is inactive: 0.322; with encorafenib it was inactive: 0.224; in assay [10] it was inactive: -0.083.

Turning to MOCS3 (UniProt O95396), the log2 fold change with volasertib is inactive: -0.103; in assay [8], inactive: -0.031; in the assay with epoxomicin it was inactive: 0.082; in [2], inactive: -0.022; in assay [3], inactive: -0.348; in assay [9], inactive: -0.031. For the same target, the log2 fold change with rosiglitazone is inactive: -0.049; in assay [5] it was inactive: -0.351; with sotrastaurin it was inactive: 0.089; with alvocidib, inactive: -0.1; with Tubastatin A, inactive: 0.033; in assay [6], inactive: 0.068. Also, the results for the log2 fold change (with defactinib; in assay [10]) were inactive: 0.127 and inactive: 0.092, respectively.
